Reference: the supplement of paper PMC4604168 (melanoma cell lines)
This is one part of the list. Many values rest on one well or one pass, so single values are uncertain.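 Cells were imaged in 1,536-well plates, and nuclei stained with an antibody against cleaved PARP were counted against all DNA-stained nuclei to give the apoptosis fraction. Screening doses were chosen to leave most cells alive, and resting and induced cleaved-PARP levels differ strongly between cell lines.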

Tests used:
Assay in all cases: cleaved PARP positive nuclei fraction relative to DMSO control; melanoma cells; higher = more apoptosis
Conditions in all cases: library dose: low library concentration; 72 h
WM115 = system: WM115
WM1716 = system: WM1716
WM1745 = system: WM1745
WM3526 = system: WM3526
WM3619 = system: WM3619
WM451Lu = system: WM451Lu

| SMILES | cleaved PARP positive nuclei fraction (WM115) | cleaved PARP positive nuclei fraction (WM1716) | cleaved PARP positive nuclei fraction (WM1745) | cleaved PARP positive nuclei fraction (WM3526) | cleaved PARP positive nuclei fraction (WM3619) | cleaved PARP positive nuclei fraction (WM451Lu) |
| --- | --- | --- | --- | --- | --- | --- |
| C[C@@H](N)c1ccc(C(=O)Nc2ccnc3[nH]ccc23)cc1 + N.N.[Cl][Pt][Cl] [cisplatin] (first compound 0.4 µM, partner dose 1.6 µM) | 41.9% | 90% | 111% | 47.3% | 96.3% | 184% |
| COc1ccc(C2=N[C@@H](c3ccc(Cl)cc3)[C@@H](c3ccc(Cl)cc3)N2C(=O)N2CCNC(=O)C2)c(OC(C)C)c1 [Nutlin-3] + N.N.[Cl][Pt][Cl] [cisplatin] (first compound 0.1 µM, partner dose 1.6 µM) | 69% | 103% | 91.1% | 39.4% | 93.3% | 48.7% |
| CCc1ccc(CCOc2ccc(CC3SC(=O)NC3=O)cc2)nc1 (stereo unspecified) [pioglitazone] + O=C(Oc1ccc([N+](=O)[O-])cc1)N1CCC(C(O)(c2ccc3c(c2)OCO3)c2ccc3c(c2)OCO3)CC1 [JZL184] (first compound 2 µM, partner dose 1 µM) | 199% | 244% | 111% | 84.4% | 97.1% | 76.3% |
| N.N.[Cl][Pt][Cl] [cisplatin] + COc1cc(Nc2ncc(F)c(Nc3ccc4c(n3)NC(=O)C(C)(C)O4)n2)cc(OC)c1OC [Tamatinib] (first compound 1.6 µM, partner dose 0.4 µM) | 143% | 139% | 128% | 42.8% | 130% | 96.3% |
| N.N.[Cl][Pt][Cl] [cisplatin] + C[C@]1(c2nc3c(C(N)=O)cccc3[nH]2)CCCN1 [Veliparib] (first compound 1.6 µM, partner dose 1.4 µM) | 80% | 108% | 99.7% | 47.6% | 113% | 38.8% |
| Cn1cc(C2=C(c3cn(C4CCN(Cc5ccccn5)CC4)c4ccccc34)C(=O)NC2=O)c2ccccc21 [Enzastaurin] + CS(=O)(=O)CCNCc1ccc(-c2ccc3ncnc(Nc4ccc(OCc5cccc(F)c5)c(Cl)c4)c3c2)o1 [lapatinib] (first compound 0.8 µM, partner dose 0.8 µM) | 44.3% | 28.5% | 109% | 87% | 103% | 267% |
| CN(c1ncccc1CNc1nc(Nc2ccc3c(c2)CC(=O)N3)ncc1C(F)(F)F)S(C)(=O)=O + C[As](C)SC[C@H](NC(=O)CC[C@H](N)C(=O)O)C(=O)NCC(=O)O [Darinaparsin] (first compound 0.08 µM, partner dose 0.4 µM) | 120% | 78.7% | 108% | 61.8% | 92.9% | 48.9% |
| Nc1cccc2c1CN(C1CCC(=O)NC1=O)C2=O (stereo unspecified) [lenalidomide] + O=C(Oc1ccc([N+](=O)[O-])cc1)N1CCC(C(O)(c2ccc3c(c2)OCO3)c2ccc3c(c2)OCO3)CC1 [JZL184] (first compound 1 µM, partner dose 1 µM) | 77.8% | 91.3% | 108% | 72.8% | 82.8% | 144% |
| C[C@]12O[C@H](C[C@]1(O)CO)n1c3ccccc3c3c4c(c5c6ccccc6n2c5c31)CNC4=O [Lestaurtinib] + NC1(c2ccc(-c3nc4ccn5c(=O)[nH]nc5c4cc3-c3ccccc3)cc2)CCC1 [MK2206] (first compound 0.004 µM, partner dose 0.4 µM) | 242% | 510% | 130% | 64.4% | 115% | 88.9% |
| N.N.[Cl][Pt][Cl] [cisplatin] + O=C(Nc1ccccc1)c1cc([N+](=O)[O-])ccc1Cl [GW9662] (first compound 1.6 µM, partner dose 2 µM) | 46% | 229% | 88.9% | 331% | 100% | 21.1% |
| N.N.[Cl][Pt][Cl] [cisplatin] + CN(C)S(=O)(=O)c1ccc2c(c1)/C(=C/c1cc3c([nH]1)CCCC3)C(=O)N2 [SU6656] (first compound 1.6 µM, partner dose 0.4 µM) | 109% | 76.9% | 95% | 66.2% | 92.3% | 122% |

In another format: results already given.
SMILES | cleaved PARP positive nuclei fraction (WM115) | cleaved PARP positive nuclei fraction (WM1716) | cleaved PARP positive nuclei fraction (WM1745) | cleaved PARP positive nuclei fraction (WM3526) | cleaved PARP positive nuclei fraction (WM3619) | cleaved PARP positive nuclei fraction (WM451Lu)
CN(c1ncccc1CNc1nc(Nc2ccc3c(c2)CC(=O)N3)ncc1C(F)(F)F)S(C)(=O)=O + C[As](C)SC[C@H](NC(=O)CC[C@H](N)C(=O)O)C(=O)NCC(=O)O [Darinaparsin] (first compound 0.08 µM, partner dose 0.4 µM) | 120% | 78.7% | 108% | 61.8% | 92.9% | 48.9%
Nc1cccc2c1CN(C1CCC(=O)NC1=O)C2=O (stereo unspecified) [lenalidomide] + O=C(Oc1ccc([N+](=O)[O-])cc1)N1CCC(C(O)(c2ccc3c(c2)OCO3)c2ccc3c(c2)OCO3)CC1 [JZL184] (first compound 1 µM, partner dose 1 µM) | 77.8% | 91.3% | 108% | 72.8% | 82.8% | 144%
